Construct, isoform or probe ends are uncertain for at least one entry.
Molecular target: Endonuclease V Y75A mutant (Escherichia coli) (UniProt P68739)
Assay: binding assay
Conditions: inosine at penultimate 3' position [16 (inosine, written as G)]; purified recombinant protein; letters built from the parent sequence and the stated change

CCCGCAAAGTTCCTCGA (double strand)
binding result: binds
